Assay results reported in PMC10258307.
These are yes or no findings as the source states them, for the method shown. Binding seen in cells or lysates may run through a third protein. Some entries that bind do so weakly or less than the wild type.

By UniProt entry, the sequences of proteins in these tests, tags left out. Where a name states a change or a piece, a line headed by the entry shows the natural chain unless it says otherwise.
UniProt P20963: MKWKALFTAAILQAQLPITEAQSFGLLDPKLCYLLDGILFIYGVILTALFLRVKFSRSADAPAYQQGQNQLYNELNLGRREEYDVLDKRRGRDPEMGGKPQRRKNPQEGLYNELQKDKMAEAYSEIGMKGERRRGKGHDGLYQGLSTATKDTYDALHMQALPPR
UniProt P43403: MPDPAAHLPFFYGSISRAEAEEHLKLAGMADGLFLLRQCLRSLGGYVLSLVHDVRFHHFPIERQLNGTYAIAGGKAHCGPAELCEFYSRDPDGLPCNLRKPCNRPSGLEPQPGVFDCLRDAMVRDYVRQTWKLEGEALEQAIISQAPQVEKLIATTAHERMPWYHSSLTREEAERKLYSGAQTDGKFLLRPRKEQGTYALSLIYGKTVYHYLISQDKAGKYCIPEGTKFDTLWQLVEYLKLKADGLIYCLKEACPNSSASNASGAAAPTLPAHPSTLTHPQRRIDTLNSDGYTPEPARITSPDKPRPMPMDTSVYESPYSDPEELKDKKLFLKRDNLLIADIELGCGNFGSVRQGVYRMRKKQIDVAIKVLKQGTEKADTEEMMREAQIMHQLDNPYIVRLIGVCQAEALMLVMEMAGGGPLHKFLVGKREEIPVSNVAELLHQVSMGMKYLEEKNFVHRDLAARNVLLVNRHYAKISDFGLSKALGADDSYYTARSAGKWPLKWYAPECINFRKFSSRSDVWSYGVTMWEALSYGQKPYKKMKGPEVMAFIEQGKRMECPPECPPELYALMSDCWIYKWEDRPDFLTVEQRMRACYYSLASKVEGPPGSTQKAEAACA

Molecular target: TCR ζ chain (human (endogenous in Jurkat)) (UniProt P20963)
Assay: co-IP; TCR ζ immunoprecipitated (anti-TCR ζ clone 6B10.2, magnetic protein AG beads, 4°C) from lysates of 1x10^7 Jurkat cells after a 3 minute anti-CD3 mAb stimulation; IP buffer 0.5% NP-40, 0.5 sodium deoxycholate, 150 mM NaCl, 20 mM Tris pH 8, 1 mM sodium orthovanadate; immunoblot for ζ-associated …

binding	Substance
no binding	R170C ZAP-70 mutant (ectopic, in p116 cells) (from UniProt P43403 1-619)
binds	WT ZAP-70 (ectopic, in p116 cells) (from UniProt P43403 1-619)
binds	ZAP-70 (endogenous, parental Jurkat E6-1) (from UniProt P43403 1-619)
